From the supplement of paper PMC10735217
Where a name gives a salt, the structure may show the parent alone. The list shows a part of the results. This data set is noisy: repeats of one test often differ as much as different tests do.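 The human kidney-derived cells carry a stably integrated construct of eight TEAD-binding elements driving luciferase, read by luminescence in a drug-repurposing library screen. A compound counts as a hit when its signal is more than five robust Z scores above the plate mean.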

System: HEK293A TEAD-LUC reporter
Assay: TEAD-luciferase reporter activity (YAP activation), robust Z score vs plate; higher = stronger YAP/TEAD activation
Conditions: 24 h

Cc1cc(C)c(-c2ccc(NC(=O)[C@H](Cc3ccc(C(=O)NCCS(=O)(=O)O)cc3)c3ccc(-c4ccc(C(C)(C)C)cc4)cc3)cc2)c(C)c1 was tested, and the TEAD-luciferase reporter activity (compound concentration: 200 nM) was inactive: -1.05, the TEAD-luciferase reporter activity (compound concentration: 2 uM) was inactive: -0.822 and the TEAD-luciferase reporter activity (compound concentration: 10 uM) was inactive: -0.0988.

With O=C(c1ccc(F)cc1)C1CCN(CCn2c(=O)[nH]c3ccccc3c2=O)CC1 [ketanserin] the TEAD-luciferase reporter activity (compound concentration: 200 nM) was inactive: -0.72, the TEAD-luciferase reporter activity (compound concentration: 2 uM) was inactive: -2.72 and the TEAD-luciferase reporter activity (compound concentration: 10 uM) was inactive: -0.994.

In the case of CO[C@H](C(=O)[C@@H](O)[C@@H](C)O)[C@@H]1Cc2cc3cc(O[C@H]4C[C@@H](O[C@H]5C[C@@H](O)[C@H](O)[C@@H](C)O5)[C@@H](O)[C@@H](C)O4)c(C)c(O)c3c(O)c2C(=O)[C@H]1O[C@H]1C[C@@H](O[C@H]2C[C@@H](O[C@H]3C[C@](C)(O)[C@H](O)[C@@H](C)O3)[C@H](O)[C@@H](C)O2)[C@H](O)[C@@H](C)O1 [Mithramycin A], the TEAD-luciferase reporter activity (compound concentration: 200 nM) is reported as inactive: 2.16, the TEAD-luciferase reporter activity (compound concentration: 2 uM) is reported as inactive: -2.09 and the TEAD-luciferase reporter activity (compound concentration: 10 uM) is reported as inactive: -0.0671.

For CO[C@H](C(=O)[C@@H](O)[C@@H](C)O)[C@@H]1Cc2cc3cc(O[C@H]4C[C@@H](O[C@H]5C[C@@H](O)[C@H](O)[C@@H](C)O5)[C@@H](O)[C@@H](C)O4)c(C)c(O)c3c(O)c2C(=O)[C@H]1O[C@H]1C[C@@H](O[C@H]2C[C@@H](O[C@H]3C[C@](C)(O)[C@H](O)[C@@H](C)O3)[C@H](O)[C@@H](C)O2)[C@H](O)[C@@H](C)O1 [Plicamycin], the TEAD-luciferase reporter activity (compound concentration: 2 uM) was inactive: -2.2.

In the case of O=c1c2c(n(-c3cccc(Cl)c3)c3ncccc13)CCCC2, the TEAD-luciferase reporter activity (compound concentration: 200 nM) is reported as inactive: -0.651, the TEAD-luciferase reporter activity (compound concentration: 2 uM) is reported as inactive: -0.317 and the TEAD-luciferase reporter activity (compound concentration: 10 uM) is reported as inactive: -0.442.

For COc1ccc2c3c1O[C@H]1C[C@@H](OC(=O)c4ccccc4)C=C[C@@]31CCN(C)C2 [Memogain], the TEAD-luciferase reporter activity (compound concentration: 200 nM) was inactive: 0.943, the TEAD-luciferase reporter activity (compound concentration: 2 uM) was inactive: -0.832 and the TEAD-luciferase reporter activity (compound concentration: 10 uM) was inactive: 2.96.

For N=C(N)NCCSSCCNC(=N)N [Guanidinoethyldisulfide bicarbonate], the TEAD-luciferase reporter activity (compound concentration: 200 nM) was inactive: -1.75 and the TEAD-luciferase reporter activity (compound concentration: 10 uM) was inactive: 0.167.

CCCCCCNC(=O)n1cc(F)c(=O)[nH]c1=O was tested, and the TEAD-luciferase reporter activity (compound concentration: 200 nM) was inactive: -0.35 and the TEAD-luciferase reporter activity (compound concentration: 10 uM) was inactive: -1.56.

For CCCCCCNC(=O)n1cc(F)c(=O)[nH]c1=O [carmofur], the TEAD-luciferase reporter activity (compound concentration: 2 uM) was inactive: -1.18.

With COc1ccc(COc2cc3oc(=O)c4cc(C(C)O)ccc4c3cc2OC)cc1 (stereo unspecified) [Palomid 529] the TEAD-luciferase reporter activity (compound concentration: 200 nM) was inactive: -1.38 and the TEAD-luciferase reporter activity (compound concentration: 10 uM) was inactive: -0.537.

For COc1ccc(COc2cc3oc(=O)c4cc(C(C)O)ccc4c3cc2OC)cc1 (stereo unspecified), the TEAD-luciferase reporter activity (compound concentration: 2 uM) was inactive: -1.37.

COc1cc2c3c(n(CCCNCCO)c(=O)c2cc1OC)-c1cc2c(cc1C3=O)OCO2 was tested, and the TEAD-luciferase reporter activity (compound concentration: 200 nM) was inactive: -2.13, the TEAD-luciferase reporter activity (compound concentration: 2 uM) was inactive: -0.135 and the TEAD-luciferase reporter activity (compound concentration: 10 uM) was inactive: -1.5.

For O=C1C(NC2CCCCCCC2)=CC(=O)c2ncccc21, the TEAD-luciferase reporter activity (compound concentration: 200 nM) was inactive: -1.06, the TEAD-luciferase reporter activity (compound concentration: 2 uM) was inactive: -0.259 and the TEAD-luciferase reporter activity (compound concentration: 10 uM) was inactive: -1.13.

With COc1ccc(CC(=O)N2CCCC3(Cc4ccccc4CN3C(=O)C3CCCC3)C2)cc1 (stereo unspecified) the TEAD-luciferase reporter activity (compound concentration: 200 nM) was inactive: 3.48 and the TEAD-luciferase reporter activity (compound concentration: 10 uM) was inactive: -0.344.

With CCCCN(CCCC)c1ccc2nc3ccc(N(CCCC)CCCC)cc3[s+]c2c1 the TEAD-luciferase reporter activity (compound concentration: 200 nM) was inactive: -0.579, the TEAD-luciferase reporter activity (compound concentration: 2 uM) was inactive: -1.92 and the TEAD-luciferase reporter activity (compound concentration: 10 uM) was inactive: -1.78.

For CCN(CC)CCN1C(=O)C(=Cc2ccc(OC)cc2)Nc2ccccc21 [caroverine fumarate], the TEAD-luciferase reporter activity (compound concentration: 200 nM) was inactive: -1.85, the TEAD-luciferase reporter activity (compound concentration: 2 uM) was inactive: -0.618 and the TEAD-luciferase reporter activity (compound concentration: 10 uM) was inactive: -1.05.

CCCC1CC(NCC)c2cc(S(N)(=O)=O)sc2S1(=O)=O (stereo unspecified) was tested, and the TEAD-luciferase reporter activity (compound concentration: 200 nM) was inactive: 0.156, the TEAD-luciferase reporter activity (compound concentration: 2 uM) was inactive: -0.978 and the TEAD-luciferase reporter activity (compound concentration: 10 uM) was inactive: -0.308.

With Cc1ccc2c(Br)cc(Br)c(O)c2n1 [BROXALDINE metabolite] the TEAD-luciferase reporter activity (compound concentration: 200 nM) was inactive: 3.14, the TEAD-luciferase reporter activity (compound concentration: 2 uM) was inactive: -0.103 and the TEAD-luciferase reporter activity (compound concentration: 10 uM) was inactive: 2.35.

CNC(=O)[C@H](C/C=C/c1ccc(N(C)c2ncccn2)cc1)NC(=O)c1c(F)cccc1F was tested, and the TEAD-luciferase reporter activity (compound concentration: 200 nM) was inactive: 0.363, the TEAD-luciferase reporter activity (compound concentration: 2 uM) was inactive: -0.155 and the TEAD-luciferase reporter activity (compound concentration: 10 uM) was inactive: -0.57.

For NC(=O)Cn1c(=O)cc(CCN2CCN(c3nccc4sccc34)CC2)c2ccc(F)cc21, the TEAD-luciferase reporter activity (compound concentration: 200 nM) was inactive: 4.63, the TEAD-luciferase reporter activity (compound concentration: 2 uM) was inactive: -1.05 and the TEAD-luciferase reporter activity (compound concentration: 10 uM) was inactive: 2.17.

With S=C(NCc1ccc2c(c1)OCO2)N1CCN(c2ncnc3c2oc2ccccc23)CC1 [Amuvatinib] the TEAD-luciferase reporter activity (compound concentration: 2 uM) was inactive: -0.696.

With S=C(NCc1ccc2c(c1)OCO2)N1CCN(c2ncnc3c2oc2ccccc23)CC1 [Amuvatinib (MP-470)] the TEAD-luciferase reporter activity (compound concentration: 200 nM) was inactive: 0.202 and the TEAD-luciferase reporter activity (compound concentration: 10 uM) was inactive: -0.135.

C[C@@H](O)[C@H]1C(=O)N2C(C(=O)O)=C(SCCNC=N)C[C@H]12 [imipenem] was tested, and the TEAD-luciferase reporter activity (compound concentration: 2 uM) was inactive: 1.84.

With C[C@@H](O)[C@H]1C(=O)N2C(C(=O)O)=C(SCCNC=N)C[C@H]12 the TEAD-luciferase reporter activity (compound concentration: 200 nM) was inactive: -2.21 and the TEAD-luciferase reporter activity (compound concentration: 10 uM) was inactive: 2.59.

In the case of Cc1coc2ccccc2c1=O, the TEAD-luciferase reporter activity (compound concentration: 200 nM) is reported as inactive: -1.53, the TEAD-luciferase reporter activity (compound concentration: 2 uM) is reported as inactive: -0.382 and the TEAD-luciferase reporter activity (compound concentration: 10 uM) is reported as inactive: 4.22.

C[C@]1(C(=O)[O-])CSC(c2ncccc2O)=N1 was tested, and the TEAD-luciferase reporter activity (compound concentration: 200 nM) was inactive: 1.46, the TEAD-luciferase reporter activity (compound concentration: 2 uM) was inactive: 0.321 and the TEAD-luciferase reporter activity (compound concentration: 10 uM) was inactive: -1.21.

COc1ccc(CC(=O)O)cc1Oc1ccc(NC(=O)C(C)(C)C)cc1CSC(C)(C)C was tested, and the TEAD-luciferase reporter activity (compound concentration: 200 nM) was inactive: 0.376, the TEAD-luciferase reporter activity (compound concentration: 2 uM) was inactive: 1.47 and the TEAD-luciferase reporter activity (compound concentration: 10 uM) was inactive: 0.553.

O=C(CCCNc1ncc(C(F)(F)F)cc1Cl)NNS(=O)(=O)c1ccc(CNC(=O)c2ccc(Cl)cc2)s1 was tested, and the TEAD-luciferase reporter activity (compound concentration: 200 nM) was inactive: 2.18, the TEAD-luciferase reporter activity (compound concentration: 2 uM) was inactive: -2.46 and the TEAD-luciferase reporter activity (compound concentration: 10 uM) was inactive: -1.49.

With CCCNC(=O)c1nnc2c(-c3c(F)cccc3OC)cccc2c1N the TEAD-luciferase reporter activity (compound concentration: 200 nM) was inactive: 0.174, the TEAD-luciferase reporter activity (compound concentration: 2 uM) was inactive: 0.874 and the TEAD-luciferase reporter activity (compound concentration: 10 uM) was inactive: -1.33.

In the case of C=CCN1Cc2ccccc2-c2ccccc2C1, the TEAD-luciferase reporter activity (compound concentration: 200 nM) is reported as inactive: -0.243, the TEAD-luciferase reporter activity (compound concentration: 2 uM) is reported as inactive: 0.156 and the TEAD-luciferase reporter activity (compound concentration: 10 uM) is reported as inactive: 3.66.

In the case of CCCC(=O)OCC(=O)Nc1nc(-c2ccc(OC)cc2)cs1, the TEAD-luciferase reporter activity (compound concentration: 200 nM) is reported as inactive: -0.361, the TEAD-luciferase reporter activity (compound concentration: 2 uM) is reported as inactive: 3.15 and the TEAD-luciferase reporter activity (compound concentration: 10 uM) is reported as active: 5.08.

In the case of CCCCCCc1ccc(N=C2SCCS2)cc1, the TEAD-luciferase reporter activity (compound concentration: 200 nM) is reported as inactive: -1.16, the TEAD-luciferase reporter activity (compound concentration: 2 uM) is reported as inactive: 0.0174 and the TEAD-luciferase reporter activity (compound concentration: 10 uM) is reported as inactive: 3.51.

With CC1CC(ON)CCN1 (stereo unspecified) the TEAD-luciferase reporter activity (compound concentration: 200 nM) was inactive: -0.775, the TEAD-luciferase reporter activity (compound concentration: 2 uM) was inactive: -0.0634 and the TEAD-luciferase reporter activity (compound concentration: 10 uM) was inactive: 1.5.

COc1cc2c(CCN3CCN(c4cccc(Cl)c4C)CC3)nn(Cc3cnc[nH]3)c2cc1OC was tested, and the TEAD-luciferase reporter activity (compound concentration: 200 nM) was inactive: -1.44, the TEAD-luciferase reporter activity (compound concentration: 2 uM) was inactive: -1.98 and the TEAD-luciferase reporter activity (compound concentration: 10 uM) was inactive: 0.0192.
